Laboratory results reported in article PMC2993708.

Tested on: GFP-CTCF + Flag-UBF
Test: EMSA
Conditions: EMSA: 20 mM Hepes pH 7.4, 20 mM KCl, 1 mM MgCl2, 5 mM DTT, 10 uM ZnCl2, 10% glycerol, 100 ug/ml BSA, 0.02% NP40, 2-4 ug salmon sperm DNA; room temperature 20 min; 5% gel; protein in a lysate after overexpression; protein details: GFP,Flag; label: 32P end label

## TGTATGGTTGATCGAGACCATTGTCGGGCGACACCTAGTGGTGACAAGTTTCGGGAACGCTCCAGGCCTCT (double strand) [R30]
  binding result: binds

Construct, isoform or probe ends are uncertain for at least one entry. Results from cells or extracts need not show a direct contact.
